Experimental data taken from doi:10.1101/2025.08.25.672209.
No constants are given. Whether binding was seen depends on the method and setting. In cells and extracts the contact can be indirect. Some entries that bind do so weakly or less than the wild type.

Protein sequences, listed by entry. Tags and fused reporters are not part of them. Residues count along the entry.
UniProt A2AIR5, residues 27-1135: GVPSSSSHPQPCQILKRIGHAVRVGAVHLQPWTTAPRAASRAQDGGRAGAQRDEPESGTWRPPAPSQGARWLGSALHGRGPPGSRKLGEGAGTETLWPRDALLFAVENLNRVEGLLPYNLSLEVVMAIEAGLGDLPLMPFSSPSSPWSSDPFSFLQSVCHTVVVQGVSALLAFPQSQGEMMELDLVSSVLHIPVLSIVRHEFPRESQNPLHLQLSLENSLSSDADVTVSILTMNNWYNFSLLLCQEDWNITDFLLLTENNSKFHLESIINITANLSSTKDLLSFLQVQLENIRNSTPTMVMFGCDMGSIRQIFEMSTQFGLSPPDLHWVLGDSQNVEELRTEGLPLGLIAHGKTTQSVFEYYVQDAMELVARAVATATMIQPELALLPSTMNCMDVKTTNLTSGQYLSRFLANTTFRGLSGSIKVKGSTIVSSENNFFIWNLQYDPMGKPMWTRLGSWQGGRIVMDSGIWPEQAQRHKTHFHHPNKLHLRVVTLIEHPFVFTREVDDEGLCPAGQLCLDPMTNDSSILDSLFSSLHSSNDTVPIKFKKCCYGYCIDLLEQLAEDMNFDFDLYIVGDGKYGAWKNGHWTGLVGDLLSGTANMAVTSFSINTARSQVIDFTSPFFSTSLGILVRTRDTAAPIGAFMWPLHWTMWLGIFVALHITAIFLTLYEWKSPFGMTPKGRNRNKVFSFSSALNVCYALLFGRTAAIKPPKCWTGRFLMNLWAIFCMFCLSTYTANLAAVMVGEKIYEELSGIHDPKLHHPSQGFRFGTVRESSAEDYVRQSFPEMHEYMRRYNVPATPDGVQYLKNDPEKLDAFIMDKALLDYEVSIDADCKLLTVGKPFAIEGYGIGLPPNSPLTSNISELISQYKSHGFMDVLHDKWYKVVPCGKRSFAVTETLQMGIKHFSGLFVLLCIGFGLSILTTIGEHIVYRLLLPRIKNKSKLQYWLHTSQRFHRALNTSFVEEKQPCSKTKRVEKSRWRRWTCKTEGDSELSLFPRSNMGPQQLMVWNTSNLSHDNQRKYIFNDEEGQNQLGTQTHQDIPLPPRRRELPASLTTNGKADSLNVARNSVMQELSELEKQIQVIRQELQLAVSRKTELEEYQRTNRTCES
UniProt Q03391, residues 28-1323: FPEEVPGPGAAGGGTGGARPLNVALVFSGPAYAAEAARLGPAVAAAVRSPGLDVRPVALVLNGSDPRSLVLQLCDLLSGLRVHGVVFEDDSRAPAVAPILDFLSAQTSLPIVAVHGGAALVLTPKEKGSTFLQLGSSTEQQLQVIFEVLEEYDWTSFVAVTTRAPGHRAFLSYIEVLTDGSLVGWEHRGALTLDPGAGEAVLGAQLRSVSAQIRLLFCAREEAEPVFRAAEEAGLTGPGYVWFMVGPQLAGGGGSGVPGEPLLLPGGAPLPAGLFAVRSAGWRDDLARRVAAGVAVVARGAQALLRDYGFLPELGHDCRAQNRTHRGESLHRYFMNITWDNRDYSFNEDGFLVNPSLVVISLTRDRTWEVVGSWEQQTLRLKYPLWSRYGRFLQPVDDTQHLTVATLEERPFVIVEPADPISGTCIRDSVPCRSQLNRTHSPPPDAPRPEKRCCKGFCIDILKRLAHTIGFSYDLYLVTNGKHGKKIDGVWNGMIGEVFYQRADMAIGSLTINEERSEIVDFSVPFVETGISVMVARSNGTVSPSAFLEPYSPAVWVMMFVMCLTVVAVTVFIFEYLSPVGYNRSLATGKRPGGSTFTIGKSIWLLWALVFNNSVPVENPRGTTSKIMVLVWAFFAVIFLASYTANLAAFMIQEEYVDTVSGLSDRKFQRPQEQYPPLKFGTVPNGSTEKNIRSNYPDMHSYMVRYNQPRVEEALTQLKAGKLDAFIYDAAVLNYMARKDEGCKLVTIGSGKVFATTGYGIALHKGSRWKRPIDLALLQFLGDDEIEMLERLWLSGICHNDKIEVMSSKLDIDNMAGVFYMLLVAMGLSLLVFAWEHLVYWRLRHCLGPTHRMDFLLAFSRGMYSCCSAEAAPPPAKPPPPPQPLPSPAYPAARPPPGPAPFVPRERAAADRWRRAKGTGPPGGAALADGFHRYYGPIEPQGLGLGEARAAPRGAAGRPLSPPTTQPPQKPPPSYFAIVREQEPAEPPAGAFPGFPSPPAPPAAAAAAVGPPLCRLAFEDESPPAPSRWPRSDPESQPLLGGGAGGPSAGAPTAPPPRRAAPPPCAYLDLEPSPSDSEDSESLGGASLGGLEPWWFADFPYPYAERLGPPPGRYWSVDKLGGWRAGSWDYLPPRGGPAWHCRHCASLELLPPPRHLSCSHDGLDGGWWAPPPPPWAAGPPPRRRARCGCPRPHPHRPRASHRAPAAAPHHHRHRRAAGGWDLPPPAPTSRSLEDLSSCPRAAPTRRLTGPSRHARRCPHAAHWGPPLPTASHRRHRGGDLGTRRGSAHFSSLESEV
UniProt Q01098, residues 20-1239: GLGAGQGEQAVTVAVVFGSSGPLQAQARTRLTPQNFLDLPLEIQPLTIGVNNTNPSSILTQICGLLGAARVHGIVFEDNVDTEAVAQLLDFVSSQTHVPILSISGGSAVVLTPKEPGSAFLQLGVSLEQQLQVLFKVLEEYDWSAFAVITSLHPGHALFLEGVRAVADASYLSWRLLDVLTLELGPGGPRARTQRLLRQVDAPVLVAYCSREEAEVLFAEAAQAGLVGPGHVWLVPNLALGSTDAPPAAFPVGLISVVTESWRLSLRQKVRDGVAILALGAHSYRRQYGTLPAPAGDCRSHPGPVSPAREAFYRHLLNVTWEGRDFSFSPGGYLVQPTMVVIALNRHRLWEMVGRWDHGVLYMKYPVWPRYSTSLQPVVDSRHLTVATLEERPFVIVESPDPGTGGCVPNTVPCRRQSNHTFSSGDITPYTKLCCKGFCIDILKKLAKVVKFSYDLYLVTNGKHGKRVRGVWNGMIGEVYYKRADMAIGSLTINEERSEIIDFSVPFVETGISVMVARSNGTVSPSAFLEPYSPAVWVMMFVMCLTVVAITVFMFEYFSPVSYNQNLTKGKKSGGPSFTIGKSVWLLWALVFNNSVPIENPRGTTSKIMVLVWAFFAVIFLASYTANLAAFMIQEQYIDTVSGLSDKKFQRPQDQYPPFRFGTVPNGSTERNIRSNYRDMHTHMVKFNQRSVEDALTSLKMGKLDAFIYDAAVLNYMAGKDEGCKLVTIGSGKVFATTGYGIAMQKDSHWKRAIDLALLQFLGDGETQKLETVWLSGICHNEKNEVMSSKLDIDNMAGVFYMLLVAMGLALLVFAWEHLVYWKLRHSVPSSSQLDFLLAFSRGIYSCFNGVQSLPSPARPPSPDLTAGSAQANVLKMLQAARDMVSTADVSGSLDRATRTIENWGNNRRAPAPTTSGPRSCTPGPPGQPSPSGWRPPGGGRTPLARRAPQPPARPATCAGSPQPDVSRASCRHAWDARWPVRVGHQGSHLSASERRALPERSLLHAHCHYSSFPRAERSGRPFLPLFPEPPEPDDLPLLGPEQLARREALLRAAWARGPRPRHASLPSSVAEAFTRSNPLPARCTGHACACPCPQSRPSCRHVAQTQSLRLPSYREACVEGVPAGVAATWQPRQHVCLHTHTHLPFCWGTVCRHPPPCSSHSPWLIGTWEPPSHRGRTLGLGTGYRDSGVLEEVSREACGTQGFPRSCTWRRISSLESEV
UniProt Q01097, residues 27-1482: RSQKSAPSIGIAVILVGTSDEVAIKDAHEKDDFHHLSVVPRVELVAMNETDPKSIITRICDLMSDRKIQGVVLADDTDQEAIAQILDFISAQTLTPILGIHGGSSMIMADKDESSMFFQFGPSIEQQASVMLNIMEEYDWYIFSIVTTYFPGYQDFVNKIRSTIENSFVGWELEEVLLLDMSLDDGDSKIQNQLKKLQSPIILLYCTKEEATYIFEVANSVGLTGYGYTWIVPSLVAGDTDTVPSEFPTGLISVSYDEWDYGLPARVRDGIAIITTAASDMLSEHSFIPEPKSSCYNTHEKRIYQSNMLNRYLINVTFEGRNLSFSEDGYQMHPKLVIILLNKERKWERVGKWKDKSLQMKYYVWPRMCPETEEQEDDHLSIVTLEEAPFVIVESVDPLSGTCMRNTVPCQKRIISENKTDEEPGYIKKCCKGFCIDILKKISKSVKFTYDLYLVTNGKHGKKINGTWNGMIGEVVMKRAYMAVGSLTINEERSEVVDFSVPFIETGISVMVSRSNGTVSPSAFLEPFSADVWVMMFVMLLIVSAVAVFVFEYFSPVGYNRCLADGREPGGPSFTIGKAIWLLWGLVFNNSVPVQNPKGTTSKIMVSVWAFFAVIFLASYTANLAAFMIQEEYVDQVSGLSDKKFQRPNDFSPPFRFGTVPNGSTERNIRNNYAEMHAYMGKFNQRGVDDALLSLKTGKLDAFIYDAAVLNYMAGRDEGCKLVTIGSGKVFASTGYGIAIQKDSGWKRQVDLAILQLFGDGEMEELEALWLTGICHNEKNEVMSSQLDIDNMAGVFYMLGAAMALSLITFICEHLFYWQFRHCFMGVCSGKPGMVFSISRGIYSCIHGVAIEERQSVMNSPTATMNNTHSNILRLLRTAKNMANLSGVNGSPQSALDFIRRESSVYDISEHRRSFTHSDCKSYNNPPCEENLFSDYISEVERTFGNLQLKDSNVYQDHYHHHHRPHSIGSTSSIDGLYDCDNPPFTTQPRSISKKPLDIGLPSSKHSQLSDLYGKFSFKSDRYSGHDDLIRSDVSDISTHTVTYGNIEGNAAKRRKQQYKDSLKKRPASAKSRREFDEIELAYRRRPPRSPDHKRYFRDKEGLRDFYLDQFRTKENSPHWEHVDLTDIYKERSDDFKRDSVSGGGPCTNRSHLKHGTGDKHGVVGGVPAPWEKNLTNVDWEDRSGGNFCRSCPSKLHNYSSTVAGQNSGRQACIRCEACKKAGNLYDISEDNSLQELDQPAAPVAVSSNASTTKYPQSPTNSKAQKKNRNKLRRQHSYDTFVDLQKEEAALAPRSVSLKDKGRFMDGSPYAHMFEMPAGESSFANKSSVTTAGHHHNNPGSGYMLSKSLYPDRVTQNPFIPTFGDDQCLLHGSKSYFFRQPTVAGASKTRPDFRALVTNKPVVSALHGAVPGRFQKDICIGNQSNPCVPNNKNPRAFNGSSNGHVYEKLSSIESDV

What follows are substances tested against GluN3A, endogenous in mouse brain (mouse (endogenous in cortex and hippocampus)) (UniProt A2AIR5) (assay: co-IP).

Row | binding | Substance
1 | no binding | GluN2D, endogenous in mouse brain (from UniProt Q03391 28-1323) (receptor)
2 | no binding | GluN2C, endogenous in mouse brain (from UniProt Q01098 20-1239) (receptor)
3 | binds | GluN2B, endogenous in mouse brain (from UniProt Q01097 27-1482) (receptor)
